Values joined by “and” are separate entries in the source; they are usually repeats but may differ in a detail not shown here. Equal values may be shown once. The campaign covered roughly 300,000 compounds. About 3,700 (1.2%) were called active. Inconclusive means that the source gave no clear call. Such entries were picked first, then a sample of the others. Calls follow the shape of the full dose curve; tested in HEK293 cells. A potency beside an inconclusive call is a rough fit, not a confirmed value.
Experiment: qHTS for Inhibitors of binding or entry into cells for Lassa Virus; also: nearly all actives have a fitted effect of over 50% in size
Conditions: Lassa virus pseudotype entry inhibition, cell reporter; activity change, negative = inhibition: at 37.9 µM (top of the series) unless noted
% is scaled to controls: 0 for no effect and ±100 for the full control effect; potency is read from the fitted curve at half-maximal effect.

Structure (SMILES)	Potency	activity change, negative = inhibition
C=CCNCC(=O)Nc1ccccc1SCC(=O)Nc1ccsc1C(=O)OC	inconclusive: 0.562 µM [inhibitor, full curve, poor fit]	–
Cc1ccc(C)c(NC(=S)NC(NC(=O)N(C)C)C(Cl)(Cl)Cl)c1 (centres undefined)	–	inactive: -5.26%
O=C(C[n+]1cc(-c2ccccc2)n2c1CCC2)c1cccs1	–	inactive: 7.18% [at 46.1 µM]
CCc1ccc2[nH]c(=O)c(CN(Cc3ccc4c(c3)OCO4)Cc3nnnn3C3CCCC3)cc2c1	active: 8.2 µM	–
O=C(/C=C/c1ccc(S(=O)(=O)NCc2ccco2)cc1)NCc1ccccc1Cl	inconclusive: 12.6 µM [inhibitor, partial curve, poor fit]	–
O=C(OCC(=O)N1CCN(C(=O)c2ccco2)CC1)c1cc(-c2ccc(Cl)c(Cl)c2Cl)nc2ccccc12	inconclusive: 25.1 µM [inhibitor, single point]	–
Cc1c(S(=O)(=O)c2ccccn2)c(N)n(Cc2ccccc2Cl)c1C	–	inactive: -26.9%
COc1cccc(-c2nnc(NC(=O)Cc3cccs3)s2)c1	–	inactive: 14.6%
COc1ccc(C2=C(N)c3ccccc3C2=O)cc1	–	inactive: 0.388%
CS(=O)(=O)Nc1ccc(C(=O)NCCSCc2ccccc2)cc1	–	inactive: 10.5% [at 46.1 µM]
CCN(CC)C(=O)Cn1c(=O)cc(C)c2c(C)nn(-c3ccc(C)cc3)c21	inconclusive: 6.31 µM [inhibitor, single point]	–
N=C1C(c2nc(-c3cccc([N+](=O)[O-])c3)cs2)=C(O)CN1NC(=O)c1ccco1	inconclusive: 1.78 µM [inhibitor, partial curve, poor fit]	–
COc1cccc(-c2nc(SCC(=O)NCC3CCCO3)c(-c3ccc(Cl)cc3)[nH]2)c1 (centres undefined)	–	inactive: -20.9% [at 46.1 µM]
CCOc1ccc(C2=Nn3c(nnc3-c3ccccc3OC)SC2)cc1	active: 0.0231 µM	–
O=C(C1CC1)N1CCc2sccc2C1c1ccc(Cl)cc1 (centres undefined)	inconclusive: 14.1 µM [inhibitor, partial curve, poor fit]	–
O=C(N/N=C/c1ccc(OC(F)F)cc1OC(F)F)NC1CCCCC1	active: 11.2 µM	–
CCOC(=O)C1(Cc2ccccc2C)CCCN(Cc2cc(OC)c(O)c(OC)c2)C1 (centres undefined)	inconclusive: 1.12 µM [inhibitor, single point]	–
CCOc1ccc2[nH]c(SCC(=O)OC)c([N+](=O)[O-])c2c1	inconclusive: 10 µM [inhibitor, partial curve]	–
CC(C)(C)c1ccc(C(=O)NNC(=O)c2ccc(Cl)cc2)cc1	–	inactive: 15.5%
COc1ccc(C2=NN(S(C)(=O)=O)C(c3cccs3)C2)cc1OC (centres undefined)	–	inactive: 29.5% [at 46.1 µM]
CCCn1c(=O)c2ccccc2n2c(=S)[nH]nc12	–	inactive: 20.6% [at 46.1 µM]
O=C(Nc1ccc(F)cc1F)NC1CCN(Cc2c(F)cccc2Cl)CC1	inconclusive: 0.891 µM [inhibitor, full curve, poor fit]	–
O=C(Nc1ccccc1N1CCN(C(=O)c2ccc(Cl)cc2)CC1)c1cc(Br)ccc1Cl	inconclusive: 32.6 µM [inhibitor, partial curve, poor fit]	–
CC(Cc1ccccc1)NC(=O)CN1C(=O)c2ccccc2S1(=O)=O (centres undefined)	inconclusive: 6.31 µM [inhibitor, single point]	–
COC(=O)c1ccc(CSc2nc3ccccc3s2)o1	–	inactive: -2.93%

Complete entries, looked up by structure:
C=CCNCC(=O)Nc1ccccc1SCC(=O)Nc1ccsc1C(=O)OC is listed as Potency: inconclusive: 0.562 µM [inhibitor, full curve, poor fit]
O=C(Nc1ccccc1N1CCN(C(=O)c2ccc(Cl)cc2)CC1)c1cc(Br)ccc1Cl is listed as Potency: inconclusive: 32.6 µM [inhibitor, partial curve, poor fit]
Cc1c(S(=O)(=O)c2ccccn2)c(N)n(Cc2ccccc2Cl)c1C is listed as activity change, negative = inhibition: inactive: -26.9%
O=C(N/N=C/c1ccc(OC(F)F)cc1OC(F)F)NC1CCCCC1 is listed as Potency: active: 11.2 µM

The list continues.

Structure (SMILES)	Potency	activity change, negative = inhibition
COc1ccccc1N=Nc1nc(-c2ccccc2)c(-c2ccccc2)[nH]1	inconclusive: 35.5 µM [inhibitor, single point]	–
COc1ccc(Cl)cc1C(=O)Nc1ccc(NC(=O)c2ccco2)cc1	–	inactive: 3.34%
Cn1c(CN2CCN(C(=O)c3ccc(F)cc3)CC2)nc2cc([N+](=O)[O-])ccc21	inconclusive: 11.2 µM [inhibitor, partial curve, poor fit]	–
CCCc1n(CC(O)COCC2CC=CCC2)c2ccccc2[n+]1C (centres undefined)	inconclusive: 35.5 µM [inhibitor, single point]	–
CCc1ccccc1NC(=O)Nc1cc(C(=O)NCc2ccccc2OC)ccc1N1CCCC1	–	inactive: 28.3% [at 46.1 µM]
COc1ccc(NC(=O)c2cncc(Br)c2)cc1S(N)(=O)=O	inconclusive: 0.794 µM [inhibitor, full curve, poor fit]	–
Cn1ccnc1C1CCCCN1C(=O)c1cc(COc2ccc(F)cc2Cl)on1 (centres undefined)	–	inactive: -29% [at 46.1 µM]
CC(=O)c1cccc(NC(=O)CCCSc2nc(-c3ccco3)cc(C(F)(F)F)n2)c1	–	inactive: 9.29% [at 46.1 µM]
Cc1c(C(=O)N2CCN(c3ccc(F)cc3)CC2)sc2ncnc(N3CCN(c4ccccn4)CC3)c12	inconclusive: 6.31 µM [inhibitor, partial curve, poor fit]	–
c1cnc2c(c1)ccc1cccnc12	active: 14.6 µM and active: 3.66 µM	–
NS(=O)(=O)c1ccc(NC(=O)CSc2nc(Nc3ccccc3)nc(N3CCOCC3)n2)cc1	–	inactive: -29.5%
NC(=O)c1ccsc1NC(=O)COC(=O)Cc1ccsc1	–	inactive: -2.42%
COc1cccc(-c2noc(-c3ccc4c(c3)OCO4)n2)c1	inconclusive: 0.794 µM [inhibitor, single point]	–
Cc1nn2c(-c3ccco3)ccnc2c1-c1ccc(Cl)cc1	–	inactive: -7.95% [at 46.1 µM]
Oc1c(/C=N/Nc2cccc3cccnc23)ccc2ccccc12	–	inactive: 8.35%
CCCCCCC(O)(c1ccc(OC)cc1)C(CN1CCOCC1)c1ccccc1 (centres undefined)	inconclusive: 3.16 µM [inhibitor, partial curve, poor fit]	–
CCC(C)NC(=O)C1c2ccccc2C(=O)N1Cc1ccc(F)cc1 (centres undefined)	inconclusive: 22.4 µM [inhibitor, partial curve, poor fit]	–
CC(C)Oc1ccccc1C1CC(=O)Nc2cc3c(cc21)OCO3 (centres undefined)	inconclusive: 0.58 µM [inhibitor, full curve, poor fit]	–
COc1cc(OC)c(N(C)C(=O)CSc2c3c(nc4ccc(Cl)cc24)CCCC3)cc1Cl	inconclusive: 35.5 µM [inhibitor, single point]	–
Nc1ccc2nc(SCC(=O)N3CCOCC3)sc2c1	inconclusive: 29.1 µM [activator, single point]	–
O=C(COC(=O)CC1CC2CCC1C2)NCc1ccccc1 (centres undefined)	–	inactive: -4.81%
CC(C)(C)c1ccc(/C=C/C(=O)N2CCOCC2)cc1	–	inactive: -6.99%
COc1cccc(N2CCN(C3CC(=O)N(c4cccc(Cl)c4)C3=O)CC2)c1 (centres undefined)	inconclusive: 2.91 µM [activator, partial curve, poor fit]	–
O=C(Nc1ccc(CN2CCCCC2)cc1)c1cccc(F)c1	–	inactive: 17.4%
COc1ccc(C(=O)Nc2cccc(-c3ccc(N4CCOCC4)nn3)c2)cc1OC	–	inactive: -18.2%

Structure (SMILES)	Potency	activity change, negative = inhibition
COc1ccccc1C(=O)C1CCCN(C(=O)CSc2ccccn2)C1 (centres undefined)	–	inconclusive: 3.53% [activator]
Cc1ccc(C)c(Cn2c(=O)n(-c3ccc(F)cc3)c(=O)c3sc4ccccc4c32)c1	–	inactive: -7.94% [at 46.1 µM]
COC(=O)C1C(=O)C=C(Nc2ccc(F)cc2F)CC1c1ccc(OC)cc1 (centres undefined)	–	inactive: -23.7%
CCOC(=O)CCN1C(=O)[C@@H]2[C@H]3[C@H](O)[C@H](O)CC(=NNC(=O)OCc4ccc(OC)cc4)[C@H]3CC[C@H]2C1=O	active: 0.168 µM	–
Clc1cccc(-n2ncc3c(Nc4ccc5c(c4)OCCO5)ncnc32)c1	inconclusive: 35.5 µM [inhibitor, single point]	–
O=C(Nc1nc2ccc([N+](=O)[O-])cc2s1)c1ccc(S(=O)(=O)N2CCCc3ccccc32)cc1	active: 12.6 µM	–
COc1ccc2cc(/C=N/O)c(Cl)nc2c1	inconclusive: 7.94 µM [activator, partial curve, poor fit]	–
CC(C)NC[C@H](O)COc1ccc(CC(N)=O)cc1	–	inactive: 20.4%
CN(CC(=O)Nc1ccc2c(c1)OCO2)S(=O)(=O)c1cccs1	–	inactive: -5.53%
COC(=O)Nc1ccc(S(=O)(=O)NCCO)cc1	–	inactive: 7.69%
CN(C)CCNc1oc(-c2cccc(Cl)c2)nc1C#N	–	inactive: -0.649%
Cc1ccc(OCc2nnc(SCC(=O)c3ccccc3)n2Cc2ccco2)cc1	inconclusive: 14.1 µM [inhibitor, single point]	–
CN(C)CCCNC(=O)c1ccc(/C=N/O)nc1	–	inactive: 1.57% [at 46.1 µM]
O=C(CCNC(=O)c1ccccc1Cl)Nc1nc(-c2ccc(F)cc2)cs1	inconclusive: 35.5 µM [inhibitor, single point]	–
O=C(N/N=C/c1ccc(O)c2ncccc12)c1cccc(Br)c1	inconclusive: 7.94 µM [inhibitor, partial curve, poor fit]	–
COc1ccc(CCNC(=O)c2ccc3c(c2)N(Cc2cccc(Cl)c2)C(=O)c2ccccc2S3=O)cc1OC (centres undefined)	inconclusive: 35.5 µM [inhibitor, single point]	–
CCOC(=O)c1cc(OC(=O)c2ccccc2OC)n(-c2ccccc2)n1	inactive	–
COc1ccc(N(C(=O)c2cccc(C)c2)S(=O)(=O)c2ccc3c(c2)n(C)c(=O)n3C)cc1	inconclusive: 0.562 µM [inhibitor, full curve, poor fit]	–
O=C(c1cccc2ccccc12)N1CCN(CC2CC=CCC2)CC1 (centres undefined)	inconclusive: 29.1 µM [inhibitor, single point]	–
CCN1C(=O)c2ccccc2Sc2ccc(NC(=O)c3cccc(C)c3)cc21	inconclusive: 10 µM [inhibitor, single point]	–
CCCOc1ccc(C(=O)Nc2ccccc2[N+](=O)[O-])cc1	inconclusive: 32.6 µM [inhibitor, single point]	–
Cc1ccc(NC(=O)Cc2ccccc2Cl)cc1S(=O)(=O)N(C)C	inconclusive: 0.891 µM [inhibitor, full curve, poor fit]	–
Brc1nnc2n1-c1ccccc1Sc1ccccc1-2	–	inactive: -15.4%
Oc1ccc(Nc2nc(-c3cccnc3)cs2)cc1	inconclusive: 11.2 µM [inhibitor, partial curve]	–

Reference: PubChem BioAssay AID540256 (National Center for Advancing Translational Sciences (NCATS), 2011)
